# Some of the results follow. These are further read-outs of the screen, such as a control signal, another cell line or another target. No call is given for them. Compounds called inactive in the main read-out are mostly missing here. Potencies come from curve fits of mixed quality, noted in brackets.
# Test: qHTS Assay for Lipid Storage Modulators in Drosophila S3 Cells;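 for cell number change: cells counted by Cell Tracker Red CMTPX staining in the red channel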
# Settings: BODIPY lipid droplet fluorescence, 18-24 h; for cell number change: measured here: cell count max response, cells fed with added oleic acid
# Procedure, shortened: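 Drosophila S3 cells loaded with oleic acid (400 uM, as added) and compounds at several concentrations; lipid droplets imaged by 488-nm laser-scanning cytometry, 500–530 nm intensity and object ratio to cell channel. Percent activity normalized to 20 uM Triacsin C.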
# [1] = measured here: lipid fluorescence (Fed channel) AC50, cells fed with added oleic acid
# [2] = measured here: cell number channel AC50, cells fed with added oleic acid
Structure (SMILES),cell number change [%],AC50 [1],AC50 [2]
C=CCn1c(CCNC(=O)c2ccccc2F)nnc1SCC(=O)Nc1ccccc1F,23.2,"23.1 µM [rising, partial curve]",–
Cc1ccc(C(=O)Nc2ccccc2C(N)=O)o1,-13.2,"2.59 µM [rising, full curve]","0.0058 µM [falling, full curve, poor fit]"
COc1ccc(/C=C/C(=O)N2CCN(c3ccccn3)CC2)c2ccccc12,15.9,–,–
CC(C)C(=O)OCC(=O)Nc1ccc(N=Nc2ccccc2)cc1,-0.603,"0.164 µM [rising, full curve, poor fit]",–
COc1ccc(N2CC(C(=O)Nc3ccc(S(=O)(=O)Nc4nccs4)cc3)CC2=O)cc1 (stereo unspecified),65.1,–,"23.1 µM [rising, single point]"
NS(=O)(=O)c1ccc(CCNC(=O)CNC(=O)c2ccccc2Br)cc1,-14.5,–,–
N#Cc1ccc(S(=O)(=O)N2CCC(C(=O)N3CCN(Cc4ccc5c(c4)OCO5)CC3)CC2)cc1,-34.9,"0.164 µM [falling, full curve, poor fit]","11.6 µM [falling, partial curve]"
COc1cccc(CNC(=O)COc2cc3c(c4oc(=O)cc(C)c24)CCC(C)(C)O3)c1,–,"29.1 µM [falling, single point]",–
C=CCOc1nc2c(c(=O)n(C)c(=O)n2C)n1Cc1ccccc1,23.9,"29.1 µM [rising, single point]",–
O=C(Cn1cc2c(n1)CCCC2)N1CCOCC1,5.45,"29.1 µM [rising, single point]",–
COc1cc(NS(C)(=O)=O)c(OC)cc1NC(=O)c1cccc(F)c1,14.4,"13 µM [rising, partial curve]",–
CCOC(=O)C1=C(c2ccccc2)ON(C)C1c1ccccc1 (stereo unspecified),5.66,–,–
Cn1c(CCNC(=O)c2ccco2)nc2cc(NC(=O)c3ccccc3)ccc21,-13,–,–
CCOC(CNC(=O)c1ccc2nc(N3CCC(C)CC3)sc2c1)OCC,–,–,"1.64 µM [rising, partial curve, poor fit]"
CC(=O)c1cc(C(=O)Nc2ccc(C(=O)O)cc2)oc1C,-35.2,"29.1 µM [falling, single point]","0.326 µM [falling, full curve]"
COCCN(CCOC)c1nc(-c2ccccc2)nc2ccccc12,3.86,–,–

Structure (SMILES),cell number change [%],AC50 [1],AC50 [2]
Cc1ccc(NC2=C(Cl)C(=O)OC2OC(=O)c2ccco2)cc1 (stereo unspecified),0.297,"0.259 µM [rising, full curve]",–
CCCS(=O)(=O)c1cn2cccc(N)c2c1S(=O)(=O)CCC,4.46,"18.4 µM [rising, partial curve, poor fit]",–
CCOC(=O)c1c(CNCCN(CC)CC)n(C)c2cc(Br)c(OC)cc12,-6.59,"18.4 µM [rising, partial curve]",–
CC1CN(S(=O)(=O)c2cccc(-c3csc(-c4ccccc4)n3)c2)CC(C)O1 (stereo unspecified),18.2,"18.4 µM [rising, partial curve]","1.64 µM [rising, partial curve, poor fit]"
COCCNC(=O)c1n[nH]c2ccccc12,-15.4,"0.103 µM [falling, full curve, poor fit]",–
Cc1cc(Cl)ccc1NC(=O)CN1C(=O)NC2(CCCC2)C1=O,-26.3,–,–
CC1OC(OC2C(OC3C(O[C@H]4CC[C@]5(C)C6C=C[C@]78OC[C@@]9(CC[C@@H](C)[C@H](C)C97)[C@H](O)C[C@@]8(C)[C@]6(C)CC[C@H]5C4(C)C)OC(C)C(O)C3O)OC(CO)C(O)C2O)C(O)C(O)C1O (stereo partly specified),-9.18,–,–
Cc1nnc2n(Cc3ccccc3)c(=O)c3c4c(sc3n12)CN(Cc1ccccc1)CC4,-0.949,–,–
CC(C)N(Cc1ccccc1)C(=S)Nc1cccnc1,66.2,–,–
Cc1nn(-c2ccccc2)c(C)c1NC(=O)COc1ccc(F)cc1Cl,-23.1,"0.651 µM [falling, full curve, poor fit]","0.00411 µM [falling, full curve, poor fit]"
OCCc1ccc(O)c(-n2nc3ccccc3n2)c1,-1.8,–,–
O=C(OCc1nc2ccccc2[n+]([O-])c1C(=O)c1ccccc1)c1cccs1,20.2,"0.00461 µM [rising, full curve, poor fit]",–
COc1ccc(/C=C2\Oc3cc(OCC(=O)N4CC(O)C[C@H]4C(=O)O)ccc3C2=O)c(OC)c1OC (stereo partly specified),33,"6.51 µM [rising, single point]","2.06 µM [rising, full curve, poor fit]"
O=C(CC1SC(=O)N(Cc2ccc(Cl)cc2)C1=O)Nc1nccs1 (stereo unspecified),33.1,–,"7.31 µM [rising, partial curve, poor fit]"
Fc1ccccc1-c1nc(NCCCN2CCOCC2)c2ccccc2n1,-9.02,"8.2 µM [rising, partial curve]",–

# An excerpt from above in order of formula weight, smallest number first.
Structure (SMILES),cell number change [%],AC50 [1],AC50 [2]
OCCc1ccc(O)c(-n2nc3ccccc3n2)c1,-1.8,–,–
CCOC(=O)C1=C(c2ccccc2)ON(C)C1c1ccccc1 (stereo unspecified),5.66,–,–
O=C(CC1SC(=O)N(Cc2ccc(Cl)cc2)C1=O)Nc1nccs1 (stereo unspecified),33.1,–,"7.31 µM [rising, partial curve, poor fit]"

# — PubChem BioAssay AID2685 (National Center for Advancing Translational Sciences (NCATS), 2010)
